Source: patent US10525115B2 (Immatics Biotechnologies GmbH, priority 2014, dated 2020)

Columns and labels:
primary AML samples = experiment: HLA class I ligandome analysis (W6/32 immunoaffinity purification, LC-MS/MS) of primary AML samples; parameters: species or system human; settings: AML patients (n=15)
[1] = test system: cancer tissues in comparison to non-cancerous tissues and organs; experiment: Presentation profile / over-presentation by label-free LC-MS (XPRESIDENT), tumor versus normal tissues, other proliferative diseases; parameters: species or system human; settings: other proliferative diseases / organs (other than AML) that over- or exclusively present the peptide; Table 5
[2] = HLA class I ligandome, count for the HLA ligand (LiTAP) or, on protein lines, for the source protein (LiTAA)

Substance	Number of positive AMLs (primary AML samples; [2])	Proliferative disease and location thereof [1]	Number of positive AMLs (primary AML samples; HLA ligand (LiTAP))
74 (EIIKEISIM; listed as Homo sapiens) [compound 74]	3	pancreas, adenocarcinoma, lymph node, Hodgkin's disease	
81 (RESEYKQVY; listed as Homo sapiens) [compound 81]	1	colon or rectum, metastatic renal cell carcinoma	
234 (RPAALFLTL; listed as Homo sapiens) [compound 234]	1	kidney, clear cell renal cell carcinoma, ovary, adenocarcinoma	
197 (EVASAKQSVKY; listed as Homo sapiens) [compound 197]	1	stomach, metastatic, lung, neuroendocrine carcinoma	
160 (KDDELSRQ; listed as Homo sapiens) [compound 160]	1	liver, hepatocellular carcinoma, cancer, parotid; gland, pleomorphic adenoma	
301 (EVTGHSKGY; listed as Homo sapiens) [compound 301]		stomach, adenocarcinoma, rectum, adenocarcinoma	2
10 (RVKDLDTEKY; listed as Homo sapiens) [compound 10]	2	kidney, clear cell renal cell carcinoma, bone, non- ossifying fibroma	
285 (FEFDIHQVI; listed as Homo sapiens) [compound 285]		stomach, metastatic, breast, carcinoma	2
32 (TQYIIHNY; listed as Homo sapiens) [compound 32]	1	stomach, skin, basal cell carcinoma	
171 (SFMTHPEF; listed as Homo sapiens) [compound 171]	1	stomach, adenocarcinoma, myometrium, leiomyoma	
76 (AVSLIREEW; listed as Homo sapiens) [compound 76]	2	stomach, adenocarcinoma, white blood cells, chronic lymphocytic leukemia	
163 (KDVKVVIL; listed as Homo sapiens) [compound 163]	1	colon or rectum, testis, seminoma	
117 (TLDQKIERV; listed as Homo sapiens) [compound 117]	3	stomach, metastatic, bone, non-ossifying fibroma	
254 (IPAVARTTTL; listed as Homo sapiens) [compound 254]		pancreas, adenocarcinoma, myometrium, leiomyoma	1
221 (EAITAIMKY; listed as Homo sapiens) [compound 221]	1	kidney, clear cell renal cell carcinoma, spleen, non-Hodgkin's lymphoma	
123 (YRQKQVVIL; listed as Homo sapiens) [compound 123]	2	stomach, metastatic, rectum, adenocarcinoma	
194 (FEVKDLLSL; listed as Homo sapiens) [compound 194]	1	kidney, clear cell renal cell carcinoma, brain, meningioma	
157 (GRVKLSDFGF; listed as Homo sapiens) [compound 157]	1	prostate, adenocarcinoma	
288 (YSGPTSVSR; listed as Homo sapiens) [compound 288]		colon or rectum, stomach, adenocarcinoma	1
156 (AAELLKHPF; listed as Homo sapiens) [compound 156]	2	prostate, adenocarcinoma	
246 (HSIDKVTSR; listed as Homo sapiens) [compound 246]		colon or rectum, parathyroid gland, adenoma	2
180 (YWVPRNAL; listed as Homo sapiens) [compound 180]	1	kidney, clear cell renal cell carcinoma, non- Hodgkin's lymphoma	
225 (FAKSQSKTF; listed as Homo sapiens) [compound 225]	2	atypical lipoma	
276 (NEGQTALHY; listed as Homo sapiens) [compound 276]		colon or rectum, endometrium, Mullerian mixed; tumor	1
35 (HGYENPTYK; listed as Homo sapiens) [compound 35]	4	lung, non-small cell lung carcinoma, kidney, carcinoma	
238 (GTLSGGILSSGK; listed as Homo sapiens) [compound 238]	1	stomach, differentiated subtype adenocarcinoma, uterine, cervix, squamous cell carcinoma	

Substance	Number of positive AMLs (primary AML samples; [2])	Proliferative disease and location thereof [1]	Number of positive AMLs (primary AML samples; HLA ligand (LiTAP))
268 (KELLAVKL; listed as Homo sapiens) [compound 268]		pancreas, adenocarcinoma, lung, adenocarcinoma	1
257 (DYLDGVHTVF; listed as Homo sapiens) [compound 257]		colon or rectum, fibromatosis	2
185 (LKAVPSQKRT; listed as Homo sapiens) [compound 185]	1	lung, non-small cell lung carcinoma, stomach, adenocarcinoma	
252 (YEFERTTSI; listed as Homo sapiens) [compound 252]		stomach, endometrium, adenocarcinoma	2
128 (LEKAFSEI; listed as Homo sapiens) [compound 128]	1	stomach, adenocarcinoma, kidney, Wilm's tumor	
6 (VQREYNLNF; listed as Homo sapiens) [compound 6]	1	colon or rectum, lung, small cell carcinoma	
106 (GQSRLIFTY; listed as Homo sapiens) [compound 106]	1	stomach, metastatic, duodenum, adenocarcinoma	
164 (RPVPPPPSL; listed as Homo sapiens) [compound 164]	1	colon or rectum, testis, seminoma	
39 (FPGLAIKI; listed as Homo sapiens) [compound 39]	2	stomach, metastatic, adenocarcinoma	
181 (EVSPNLVRY; listed as Homo sapiens) [compound 181]	2	stomach, metastatic, pancreas, adenocarcinoma	
3 (HHDESVLTNVF; listed as Homo sapiens) [compound 3]	3	colon or rectum, lung, small cell carcinoma	
230 (KYLTAEAFGF; listed as Homo sapiens) [compound 230]	2	stomach, metastatic, lung, squamous cell carcinoma	
174 (IEDPVRPEV; listed as Homo sapiens) [compound 174]	1	colon or rectum, liver, hepatocellular carcinoma	
124 (VAINLIVQH; listed as Homo sapiens) [compound 124]	1	stomach, metastatic, rectum, adenocarcinoma	
191 (IHDELQQSF; listed as Homo sapiens) [compound 191]	3	colon or rectum, spleen, chronic myeloid leukemia	
110 (FQLPGLGTPPIT; listed as Homo sapiens) [compound 110]	1	lung, non-small cell lung carcinoma, spleen, extramedullary hematopoiesis	
322 (SAADGPRVF; listed as Homo sapiens) [compound 322]		breast, carcinoma	1
98 (SFTDVIGHY; listed as Homo sapiens) [compound 98]	1	kidney, angiomyolipoma	
275 (SVFEKSVGY; listed as Homo sapiens) [compound 275]		kidney, clear cell renal cell carcinoma, kidney, angiomyolipoma	1
169 (QVAGWGSQR; listed as Homo sapiens) [compound 169]	1	spleen, chronic myeloid leukemia	
25 (YLDIKGLLDV; listed as Homo sapiens) [compound 25]	2	brain, glioblastoma, thyroid gland, nodular; hyperplasia	
9 (REDKPPLAV; listed as Homo sapiens) [compound 9]	1	kidney, clear cell renal cell carcinoma, bone, non- ossifying fibroma	
277 (VEFPHSPEI; listed as Homo sapiens) [compound 277]		colon or rectum, endometrium, Mullerian mixed; tumor	2
259 (TYVSGMLRF; listed as Homo sapiens) [compound 259]		brain, glioblastoma, breast, carcinoma	1
113 (RFFHLADLF; listed as Homo sapiens) [compound 113]	1	stomach, adenocarcinoma, testis, seminoma	
